# The list shows a part of the results.
# B1: PX9961W-pdi-543-27-543 (Parabacteroides distasonis) (protein)
# chain: EGNATTTSYFLNDQQAIDAIDGLYERFHQEGCYGRELFWEQGAACDIVWGRTRGYNSLATLAYTGDESPLRDVFSRMYSTMSRANWIIQELVKKEKGTTLTAVEKRSLGEAYFSRGWAHYLIAYRYGTDKQGVPFVRYEDFPDDYDNSIPPQQATVMDNYKLIIEDMDKAIAYLPIFESYDADNRGRAHQAAAVAFKAKTYAYWATWDATQWNNVIEMVNQLENNYNRDLAPTFAELFSSDLKDYWNAEYLWTIPSIGGALPGGTEFPGIILENKGWGKYNGWGQMKPSYDIYEEMAKDGKGNDRLVRSILEYNQEFPFFGETRKFWSTSDLEAGFMINKYMDAFKYSDPVGEGAVSANGDWPTVRVNFPIIRFAEMLLFRAEAYLMTGQADKATADINRIRLRSNLTPLTGTATMKDLYHERRCELAFEFTDHLFDLKRWNRSSNADIKTLADKELNAHPRIRRYEDRANPESAFTIIGYEDYTNKNAYQAHMMVFPYPSEEITKSNGQLKQNEGY
# How the values were obtained:
# Test in all cases: glycan array binding signal (z-score within array); higher = stronger binding
# Conditions in all cases: glycan notation: IUPAC condensed, linker removed
# Neu5Ac(a2-3)GalNAc = molecular target: Neu5Ac(a2-3)GalNAc
# Summary of the method: (§1)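 From the Consortium for Functional Glycomics database, 3228 arrays were curated, keeping only those whose protein sequence was available. Binding is given as a within-array Z-score averaged across arrays sharing a protein sequence and across linkers. Negative Z-scores can be read as non-binding.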
# [1] = molecular target: Neu5Ac(a2-3)GalNAc(b1-4)GlcNAc
# Summary of the method: as §1
# [2] = molecular target: Neu5Ac(a2-3)[GalNAc(b1-4)]Gal(b1-4)Glc
# Summary of the method: as §1
# [3] = molecular target: Neu5Ac(a2-3)[GalNAc(b1-4)]Gal(b1-4)GlcNAc
# Summary of the method: as §1
# [4] = molecular target: Neu5Ac(a2-3)[GalNAc(b1-4)]Gal(b1-4)GlcNAc(b1-3)GalNAc
# Summary of the method: as §1
# [5] = molecular target: Neu5Ac(a2-3)[Neu5Ac(a2-6)]GalNAc
# Summary of the method: as §1
# Neu5Ac(a2-6)Gal = molecular target: Neu5Ac(a2-6)Gal
# Summary of the method: as §1
# [6] = molecular target: Neu5Ac(a2-6)Gal(b1-3)GlcNAc(b1-3)[Gal(b1-4)GlcNAc(b1-6)]Gal(b1-4)Glc
# Summary of the method: as §1
# Neu5Ac(a2-6)Gal(b1-4)Glc = molecular target: Neu5Ac(a2-6)Gal(b1-4)Glc
# Summary of the method: as §1
# [7] = molecular target: Neu5Ac(a2-6)Gal(b1-4)GlcNAc
# Summary of the method: as §1
# [8] = molecular target: Neu5Ac(a2-6)Gal(b1-4)GlcNAc(b1-2)Man
# Summary of the method: as §1
# [9] = molecular target: Neu5Ac(a2-6)Gal(b1-4)GlcNAc(b1-2)Man(a1-3)Man(b1-4)GlcNAc(b1-4)GlcNAc
# Summary of the method: as §1
# [10] = molecular target: Neu5Ac(a2-6)Gal(b1-4)GlcNAc(b1-2)Man(a1-3)[Gal(b1-4)GlcNAc(b1-2)Man(a1-6)]Man(b1-4)GlcNAc(b1-4)GlcNAc
# Summary of the method: as §1
# [11] = molecular target: Neu5Ac(a2-6)Gal(b1-4)GlcNAc(b1-2)Man(a1-3)[GlcNAc(b1-2)Man(a1-6)]Man(b1-4)GlcNAc(b1-4)GlcNAc
# Summary of the method: as §1
# [12] = molecular target: Neu5Ac(a2-6)Gal(b1-4)GlcNAc(b1-2)Man(a1-3)[GlcNAc(b1-4)][Neu5Ac(a2-6)Gal(b1-4)GlcNAc(b1-2)Man(a1-6)]Man(b1-4)GlcNAc(b1-4)GlcNAc
# Summary of the method: as §1
# [13] = molecular target: Neu5Ac(a2-6)Gal(b1-4)GlcNAc(b1-2)Man(a1-3)[Man(a1-6)]Man(b1-4)GlcNAc(b1-4)GlcNAc
# Summary of the method: as §1
# [14] = molecular target: Neu5Ac(a2-6)Gal(b1-4)GlcNAc(b1-2)Man(a1-3)[Neu5Ac(a2-3)Gal(b1-4)GlcNAc(b1-2)Man(a1-6)]Man(b1-4)GlcNAc(b1-4)GlcNAc
# Summary of the method: as §1
# [15] = molecular target: Neu5Ac(a2-6)Gal(b1-4)GlcNAc(b1-2)Man(a1-3)[Neu5Ac(a2-6)Gal(b1-4)GlcNAc(b1-2)Man(a1-6)]Man(b1-4)GlcNAc(b1-4)GlcNAc
# Summary of the method: as §1
# [16] = molecular target: Neu5Ac(a2-6)Gal(b1-4)GlcNAc(b1-2)Man(a1-3)[Neu5Ac(a2-6)Gal(b1-4)GlcNAc(b1-2)Man(a1-6)]Man(b1-4)GlcNAc(b1-4)[Fuc(a1-6)]GlcNAc
# Summary of the method: as §1
# [17] = molecular target: Neu5Ac(a2-6)Gal(b1-4)GlcNAc(b1-2)Man(a1-6)Man(b1-4)GlcNAc(b1-4)GlcNAc
# Summary of the method: as §1
# [18] = molecular target: Neu5Ac(a2-6)Gal(b1-4)GlcNAc(b1-2)Man(a1-6)[Gal(b1-4)GlcNAc(b1-2)Man(a1-3)]Man(b1-4)GlcNAc(b1-4)GlcNAc
# Summary of the method: as §1
# [19] = molecular target: Neu5Ac(a2-6)Gal(b1-4)GlcNAc(b1-2)Man(a1-6)[GlcNAc(b1-2)Man(a1-3)]Man(b1-4)GlcNAc(b1-4)GlcNAc
# Summary of the method: as §1
# [20] = molecular target: Neu5Ac(a2-6)Gal(b1-4)GlcNAc(b1-2)Man(a1-6)[Man(a1-3)]Man(b1-4)GlcNAc(b1-4)GlcNAc
# Summary of the method: as §1
# [21] = molecular target: Neu5Ac(a2-6)Gal(b1-4)GlcNAc(b1-2)[Neu5Ac(a2-6)Gal(b1-4)GlcNAc(b1-4)]Man(a1-3)[GlcNAc(b1-4)][Neu5Ac(a2-6)Gal(b1-4)GlcNAc(b1-2)[Neu5Ac(a2-6)Gal(b1-4)GlcNAc(b1-6)]Man(a1-6)]Man(b1-4)GlcNAc(b1-4)GlcNAc
# Summary of the method: as §1
# [22] = molecular target: Neu5Ac(a2-6)Gal(b1-4)GlcNAc(b1-2)[Neu5Ac(a2-6)Gal(b1-4)GlcNAc(b1-4)]Man(a1-3)[GlcNAc(b1-4)][Neu5Ac(a2-6)Gal(b1-4)GlcNAc(b1-4)Man(a1-6)]Man(b1-4)GlcNAc(b1-4)GlcNAc
# Summary of the method: as §1
# [23] = molecular target: Neu5Ac(a2-6)Gal(b1-4)GlcNAc(b1-2)[Neu5Ac(a2-6)Gal(b1-4)GlcNAc(b1-6)]Man(a1-6)[Neu5Ac(a2-6)Gal(b1-4)GlcNAc(b1-2)Man(a1-3)][GlcNAc(b1-4)]Man(b1-4)GlcNAc(b1-4)GlcNAc
# Summary of the method: as §1
# [24] = molecular target: Neu5Ac(a2-6)Gal(b1-4)GlcNAc(b1-3)Gal(b1-3)GlcNAc
# Summary of the method: as §1
# [25] = molecular target: Neu5Ac(a2-6)Gal(b1-4)GlcNAc(b1-3)Gal(b1-4)GlcNAc
# Summary of the method: as §1
# [26] = molecular target: Neu5Ac(a2-6)Gal(b1-4)GlcNAc(b1-3)Gal(b1-4)GlcNAc(b1-2)Man(a1-3)[Neu5Ac(a2-6)Gal(b1-4)GlcNAc(b1-3)Gal(b1-4)GlcNAc(b1-2)Man(a1-6)]GalNAc
# Summary of the method: as §1
# [27] = molecular target: Neu5Ac(a2-6)Gal(b1-4)GlcNAc(b1-3)Gal(b1-4)GlcNAc(b1-3)Gal(b1-4)GlcNAc
# Summary of the method: as §1
# [28] = molecular target: Neu5Ac(a2-6)Gal(b1-4)GlcNAc(b1-3)Gal(b1-4)GlcNAc(b1-3)Gal(b1-4)GlcNAc(b1-2)Man(a1-3)[Neu5Ac(a2-6)Gal(b1-4)GlcNAc(b1-3)Gal(b1-4)GlcNAc(b1-3)Gal(b1-4)GlcNAc(b1-2)Man(a1-6)]GalNAc
# Summary of the method: as §1
# [29] = molecular target: Neu5Ac(a2-6)Gal(b1-4)GlcNAc(b1-3)Gal(b1-4)GlcNAc(b1-3)GalNAc
# Summary of the method: as §1
# [30] = molecular target: Neu5Ac(a2-6)Gal(b1-4)GlcNAc(b1-3)Gal(b1-4)GlcNAc(b1-3)[Neu5Ac(a2-6)Gal(b1-4)GlcNAc(b1-3)Gal(b1-4)GlcNAc(b1-6)]GalNAc
# Summary of the method: as §1
# [31] = molecular target: Neu5Ac(a2-6)Gal(b1-4)GlcNAc(b1-3)Gal(b1-4)GlcNAc(b1-6)[Gal(b1-3)]GalNAc
# Summary of the method: as §1
# [32] = molecular target: Neu5Ac(a2-6)Gal(b1-4)GlcNAc(b1-3)Gal(b1-4)[Fuc(a1-3)]GlcNAc(b1-3)Gal(b1-4)[Fuc(a1-3)]GlcNAc
# Summary of the method: as §1
# [33] = molecular target: Neu5Ac(a2-6)Gal(b1-4)GlcNAc(b1-3)GalNAc
# Summary of the method: as §1
# [34] = molecular target: Neu5Ac(a2-6)Gal(b1-4)GlcNAc(b1-3)[Neu5Ac(a2-6)Gal(b1-4)GlcNAc(b1-6)]GalNAc
# Summary of the method: as §1
binder,measurement,setting,value
B1,glycan array binding signal (z-score),Neu5Ac(a2-3)GalNAc,1.34
same,glycan array binding signal (z-score),[1],0.696
same,glycan array binding signal (z-score),[2],-0.926
same,glycan array binding signal (z-score),[3],-0.518
same,glycan array binding signal (z-score),[4],-0.182
same,glycan array binding signal (z-score),[5],-0.141
same,glycan array binding signal (z-score),Neu5Ac(a2-6)Gal,-0.157
same,glycan array binding signal (z-score),[6],-0.925
same,glycan array binding signal (z-score),Neu5Ac(a2-6)Gal(b1-4)Glc,-0.885
same,glycan array binding signal (z-score),[7],-0.299
same,glycan array binding signal (z-score),[8],-1.14
same,glycan array binding signal (z-score),[9],-0.037
same,glycan array binding signal (z-score),[10],-0.974
same,glycan array binding signal (z-score),[11],-1.33
same,glycan array binding signal (z-score),[12],-0.023
same,glycan array binding signal (z-score),[13],-0.07
same,glycan array binding signal (z-score),[14],-0.733
same,glycan array binding signal (z-score),[15],-0.249
same,glycan array binding signal (z-score),[16],0.138
same,glycan array binding signal (z-score),[17],1.38
same,glycan array binding signal (z-score),[18],-1.11
same,glycan array binding signal (z-score),[19],0.243
same,glycan array binding signal (z-score),[20],0.11
same,glycan array binding signal (z-score),[21],0.354
same,glycan array binding signal (z-score),[22],0.159
same,glycan array binding signal (z-score),[23],0.776
same,glycan array binding signal (z-score),[24],0.286
same,glycan array binding signal (z-score),[25],0.41
same,glycan array binding signal (z-score),[26],0.474
same,glycan array binding signal (z-score),[27],-0.315
same,glycan array binding signal (z-score),[28],1.59
same,glycan array binding signal (z-score),[29],-0.05
same,glycan array binding signal (z-score),[30],-0.683
same,glycan array binding signal (z-score),[31],-0.695
same,glycan array binding signal (z-score),[32],-0.696
same,glycan array binding signal (z-score),[33],-0.654
same,glycan array binding signal (z-score),[34],-0.692

# A second format for some results above:
binder | measurement | setting | value
B1 | glycan array binding signal (z-score) | [4] | -0.182
same | glycan array binding signal (z-score) | [5] | -0.141
same | glycan array binding signal (z-score) | Neu5Ac(a2-6)Gal | -0.157
